Results: publication PMC4794571
A negative result means that nothing was seen under these conditions. For at least one entry, the source does not settle the construct or the ends of the probe. For part of these data: Weaker means in comparison with the reference protein, sequence or condition of that experiment.

Experiments:
Assay in all cases: microarray fluorescence
[1] = tested on: Cy3-IgE (direct labeling); conditions: temperature not stated, commercial protein, protein details: Cy3 label, D/P 2.4 unless stated, folded or branched DNA
Cy3-thrombin = conditions: temperature not stated, commercial protein, protein details: Cy3 label, folded or branched …
[2] = tested on: biotin-IgE (indirect labeling); conditions: temperature not stated, commercial protein, protein details: biotin, detected with Cy3-streptavidin, folded or branched DNA
[3] = not significant; T linker to array surface; PBS-based wash: 8.1 mM Na2HPO4, 137 mM NaCl, 1 mM MgCl2, pH 7.4)
[4] = direct label, reduced at long linkers, above SA; T linker to array surface; PBS-based wash: 8.1 mM Na2HPO4, 137 mM NaCl, 1 mM MgCl2, pH 7.4)

## CACGTTTATCCGTCCCTCCTAGTGGCGTG [IgE_17-1 (IgE_D17-1)]
[1]; direct label, D/P 0.41; T linker to array surface; PBS-based wash: 8.1 mM Na2HPO4, 137 mM NaCl, 1 mM MgCl2, pH 7.4)
  binding result: binds
[1]; direct label, D/P 2.4; T linker to array surface; PBS-based wash: 8.1 mM Na2HPO4, 137 mM NaCl, 1 mM MgCl2, pH 7.4)
  binding result: no binding

## CCTGGGGGAGTATTGCGGAGGAAGG [ATP 25.42]
Cy3-thrombin; [3]
  binding result: no binding

## GGAACGACGGGTGGGTGGGAGGGAGATCGTTCC [RF3]
Cy3-thrombin; enhanced relative to TFBS; T linker to array surface; PBS-based wash: 8.1 mM Na2HPO4, 137 mM NaCl, 1 mM MgCl2, pH 7.4)
  binding result: binds

## GGAACGACGGTGGTGGAGGAGATCGTTCC [RF2]
Cy3-thrombin; T linker to array surface; PBS-based wash: 8.1 mM Na2HPO4, 137 mM NaCl, 1 mM MgCl2, pH 7.4)
  binding result: no binding

## GGGGCACGTTTAGCCGTCCCTCCTTGTGGCGTGCCCC [ID17-4DM13_25]
[1]; [4]
  binding result: binds more weakly

## GGGGCACGTTTATCCGACCCTCCTAGTGGCGTGCCCC [ID17-4SM17]
[1]; [4]
  binding result: binds more weakly

## GGGGCACGTTTATCCGTCCCGCCTAGTGGCGTGCCCC [ID17-4SM21]
[1]; direct label, reduced, above SA, no acceptable Kd fit; T linker to array surface; PBS-based wash: 8.1 mM Na2HPO4, 137 mM NaCl, 1 mM MgCl2, pH 7.4)
  binding result: binds more weakly
[2]; indirect label, weak, no fit; T linker to array surface; PBS-based wash: 8.1 mM Na2HPO4, 137 mM NaCl, 1 mM MgCl2, pH 7.4)
  binding result: binds more weakly

## GGGGCACGTTTATCCGTCCCTCCTAGTAGCGTGCCCC [ID17-4SM28]
[1]; [4]
  binding result: binds more weakly

## GGGGCACGTTTATCCGTCCCTCCTAGTGGCGTGCCCC [IgE_17-4 (IgE_D17-4), T linker]
Cy3-thrombin; [3]
  binding result: no binding

## GGTTGGTGTGGTTGG [TFBS]
Cy3-thrombin; T linker, A, C, G linkers vary, T linker to array surface (A, C, G linkers also tested); PBS-based wash: 8.1 mM Na2HPO4, 137 mM NaCl, 1 mM MgCl2, pH 7.4)
  binding result: binds

## TCTGTGAGACGACGCACCGGTCGCAGGTTTTGTCTCACAG [SA (streptavidin aptamer mutant)]
[1]; direct label, background only; T linker to array surface; PBS-based wash: 8.1 mM Na2HPO4, 137 mM NaCl, 1 mM MgCl2, pH 7.4)
  binding result: no binding
Cy3-thrombin; [3]
  binding result: no binding
[2]; indirect label, could not be fitted, nonbinder; T linker to array surface; PBS-based wash: 8.1 mM Na2HPO4, 137 mM NaCl, 1 mM MgCl2, pH 7.4)
  binding result: no binding
